PubChem BioAssay AID2479 (National Center for Advancing Translational Sciences (NCATS), 2010)
The shares of active, inactive and inconclusive entries below differ from those in the screen. Where the call is inconclusive, the potency comes from a doubtful curve fit. The source made the active and inactive calls. Calls come from the whole dose curve.

Sequences of proteins named here, by UniProt entry; tags and fusion partners are left off. A change or cut given only in a name is not applied to a line headed by its entry.
UniProt P10828: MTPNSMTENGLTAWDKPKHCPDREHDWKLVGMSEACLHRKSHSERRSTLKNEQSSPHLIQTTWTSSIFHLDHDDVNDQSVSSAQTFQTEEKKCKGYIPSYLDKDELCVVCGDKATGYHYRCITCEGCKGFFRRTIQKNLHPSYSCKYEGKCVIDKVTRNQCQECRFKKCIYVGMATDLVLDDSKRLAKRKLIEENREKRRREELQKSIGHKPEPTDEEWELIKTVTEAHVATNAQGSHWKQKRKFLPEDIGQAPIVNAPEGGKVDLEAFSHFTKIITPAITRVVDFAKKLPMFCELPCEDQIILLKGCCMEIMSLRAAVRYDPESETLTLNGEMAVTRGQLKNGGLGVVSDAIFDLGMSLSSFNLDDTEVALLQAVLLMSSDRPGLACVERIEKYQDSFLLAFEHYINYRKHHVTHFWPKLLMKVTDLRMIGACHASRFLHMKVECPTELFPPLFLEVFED

Target: Thyroid hormone receptor beta (Homo sapiens) (UniProt P10828)
Experiment: Gene Reporter Secondary Assay for Inhibitors of the Interaction of Thyroid Hormone Receptor and Steroid Receptor Coregulator 2 in a Thyroid Receptor Assay
Conditions: WRO cells TRb DR4-TRE luciferase reporter, T3, 20 h
Text: NIH Molecular Libraries Probe Production Network [MLPCN] NIH Chemical Genomics Center [NCGC] MLPCN Grant: DK058080 Assay Provider: R. Kip Guy, St. Jude Children's Research Hospital NCGC Assay Overview: Thyroid receptor (TR) regulates many homeostatic processes including basal metabolism, cardiovascular function, body weight, and lipid trafficking. TR modulators are potential therapeutics for obesity and hyperlipidemias but current thyroid analogs have undesirable side effects, particularly cardiac stimulation. This secondary assay characterized compounds identified in the qHTS for Inhibitors of the Interaction of Thyroid Hormone Receptor and Steroid Receptor Coregulator 2 (PubChem AID 1485). The human follicular thyroid carcinoma cell line WRO (kindly provided by Dr. M. D. Ringel) stably expresses TRb and a luciferase reporter gene fused to TR response element. The addition of T3 ligand elevates expression of the TRE luciferase reporter (DR4-TRE-luc).
NCGC Assay Protocol Summary: Cells were maintained in RPMI 1640 culture medium supplemented with 10% heat-inactivated FBS, 0.33 mg/ml hygromycin, 0.33 mg/ml geneticin, 50 units/ml penicillin, 50 ug/ml streptomycin. Cells were harvested and resuspended at 330,000 cells/ml in assay medium (50% DMEM 50% F-12 medium without Phenol-Red (Cellgro #16-405-CV), L-glutamine, 10% heat inactivated and charcoal treated FBS, 100 uM non-essential amino acid, 50 units/ml penicillin, 50 ug/ml streptomycin). Cells were dispensed at 8,000 cells/25 ul/well into 384 well plates (Corning 3917) and incubated 12 hr at 37 C and 5% CO2. Following transfer of 130 nL compound (ranging from 0.2 to 52 uM) and T3 (100 nM final concentration), the plates were incubated 20 hr incubation at 37 C and 5% CO2. Plates were then equilibrated at ambient temperature for 30 min, 25 ul of Bright-Glo (Promega) was added and luminescence was detected by an EnVision (PerkinElmer).

Potency, inconclusive:
CCCC1CCN(C(=O)COC(=O)c2ccc(S(C)(=O)=O)c([N+](=O)[O-])c2)CC1 9.6 µM
Cc1ccc(-c2csc(-c3ccc(S(C)(=O)=O)c([N+](=O)[O-])c3)n2)cc1 12.4 µM
CC1CCN(C(=O)COC(=O)c2ccc(S(C)(=O)=O)c([N+](=O)[O-])c2)CC1 12.8 µM
CS(=O)(=O)c1ccc(C(=O)OCC(=O)N2CCN(Cc3ccccc3)CC2)cc1[N+](=O)[O-] 11.8 µM
CS(=O)(=O)c1ccc(C(=O)OCC(=O)N2CCN(C3CCCCC3)CC2)cc1[N+](=O)[O-] 12.8 µM

Potency, active:
CCN1CCN(C(=O)COC(=O)c2ccc(S(C)(=O)=O)c([N+](=O)[O-])c2)CC1C (centres undefined) 26.3 µM
CS(=O)(=O)c1ccc(C(=O)OCC(=O)NCC2CCCO2)cc1[N+](=O)[O-] (centres undefined) 15.2 µM

outcome, inactive:
Cc1cc(C(=O)OCC(=O)NC(=O)C2CCCCC2)ccc1[N+](=O)[O-]
C[S+](=O)([O-])c1ccc(C(=O)OCC(=O)N2CCN([S+](C)(=O)[O-])CC2)cc1[N+](=O)[O-]
